Source: PubChem BioAssay AID504786 (Drosophila RNAi Screening Center, 2011)
The screen tested about 21,000 reagents; below is an unselected part of those that have a named target and a result. 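Primary screen; positive scores mean lost reporter signal, so the sign may be inverted from the usual convention.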 A plus sign joins genes that one reagent is predicted to hit. Further read-outs or replicates are left out here.

Aim: 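Fly genes required for HIF-dependent transcription when hypoxia is mimicked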 (primary screen)
System: Drosophila S2 cells with a stable HIF luciferase reporter
Knock-down reagent: long dsRNA against Drosophila genes, about 0.2 µg dsRNA per well of a 384-well plate
Duration: three days of knock-down, then 20 h of DFO before reading
Conditions: desferrioxamine (DFO) at 100 µM, an iron chelator that mimics hypoxia, for 20 h
Detection: 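Firefly luciferase driven by the mouse ldh-a hypoxia-response element, measured after 20 h of 100 µM DFO; z-scores per plate, higher means more signal lost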
Scale: z-score: higher = stronger loss of HIF reporter signal

z-score, replicate 1, by gene and reagent
CHOp24: DRSC18310 -0.3
Obp83cd (Odorant-binding protein 83cd): DRSC12267 -0.3
Zmynd10 (Zinc finger MYND-type containing 10): DRSC09826 -0.3
Marc (Mitochondrial amidoxime reducing component): DRSC06614 -0.2
park (parkin): DRSC11618 0
CG11768: DRSC14377 0.4
CG33253: DRSC19547 0; DRSC20053 -0.5
Or10a (Odorant receptor 10a): DRSC20264 -0.2
pea (peanuts): DRSC07120 3.2
Svil (Supervillin): DRSC07981 -0.2; DRSC08296 -0.3; DRSC08332 -0.2; DRSC08333 2.2; DRSC08494 0.1
La (La autoantigen-like): DRSC03358 -0.3
Myd88: DRSC06815 -0.3
CG6067: DRSC18399 -0.3
CG4866: DRSC06899 -0.2

5 entries from above in another layout.
| gene | dsRNA | z-score, replicate 1 |
| --- | --- | --- |
| Svil (Supervillin) | DRSC08296 | -0.3 |
| Svil (Supervillin) | DRSC08332 | -0.2 |
| Svil (Supervillin) | DRSC08333 | 2.2 |
| Svil (Supervillin) | DRSC08494 | 0.1 |
| La (La autoantigen-like) | DRSC03358 | -0.3 |

The list goes on:
z-score, replicate 1, by gene and reagent
CG11089 + CG31381: DRSC13690 -0.3; DRSC14290 -0.2
CG15247: DRSC17976 -0.1
CG17929: DRSC15291 -0.2
CG7379: DRSC16237 -0.2
AQP (aquaporin): DRSC06122 -0.2
Cul2 (Cullin 2): DRSC03710 -0.1
CG32511 (retired record): DRSC20697 -0.4
PIG-Wa (Phosphatidylinositol glycan anchor biosynthesis class W a): DRSC00728 -0.3
ZnT35C (Zinc transporter 35C): DRSC01959 -0.3
CG34436: DRSC15164 -0.2
CG6435: DRSC06987 -0.3
trr (trithorax-related): DRSC18845 0
Reck (Reversion-inducing-cysteine-rich protein with kazal motifs): DRSC10504 -0.3; DRSC10505 -0.3
